In the supplement of paper PMC10849652:
Some of the results follow.

The chains behind the UniProt entries cited, without tags or fusion partners. Where a name states a change or a piece, a line headed by the entry shows the natural chain unless it says otherwise.
UniProt Q9H6F5: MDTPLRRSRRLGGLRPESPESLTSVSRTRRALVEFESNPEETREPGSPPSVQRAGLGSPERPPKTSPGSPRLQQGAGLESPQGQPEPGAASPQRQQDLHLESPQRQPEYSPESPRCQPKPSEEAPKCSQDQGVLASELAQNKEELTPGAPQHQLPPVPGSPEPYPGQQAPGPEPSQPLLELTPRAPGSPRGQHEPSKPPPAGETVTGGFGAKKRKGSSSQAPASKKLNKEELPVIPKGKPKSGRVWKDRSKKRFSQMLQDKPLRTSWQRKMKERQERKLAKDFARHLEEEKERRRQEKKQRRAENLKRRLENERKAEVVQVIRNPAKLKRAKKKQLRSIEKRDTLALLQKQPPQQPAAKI
UniProt Q16543: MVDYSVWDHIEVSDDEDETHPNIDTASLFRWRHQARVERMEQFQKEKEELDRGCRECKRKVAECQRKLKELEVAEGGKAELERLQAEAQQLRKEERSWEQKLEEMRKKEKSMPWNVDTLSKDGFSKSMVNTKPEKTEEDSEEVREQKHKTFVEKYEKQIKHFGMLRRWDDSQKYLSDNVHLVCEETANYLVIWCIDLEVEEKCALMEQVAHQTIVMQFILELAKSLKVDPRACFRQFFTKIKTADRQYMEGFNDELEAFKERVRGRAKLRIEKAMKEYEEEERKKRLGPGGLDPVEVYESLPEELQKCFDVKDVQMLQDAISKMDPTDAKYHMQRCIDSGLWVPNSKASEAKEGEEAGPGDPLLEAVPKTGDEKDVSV
UniProt Q8IVM0: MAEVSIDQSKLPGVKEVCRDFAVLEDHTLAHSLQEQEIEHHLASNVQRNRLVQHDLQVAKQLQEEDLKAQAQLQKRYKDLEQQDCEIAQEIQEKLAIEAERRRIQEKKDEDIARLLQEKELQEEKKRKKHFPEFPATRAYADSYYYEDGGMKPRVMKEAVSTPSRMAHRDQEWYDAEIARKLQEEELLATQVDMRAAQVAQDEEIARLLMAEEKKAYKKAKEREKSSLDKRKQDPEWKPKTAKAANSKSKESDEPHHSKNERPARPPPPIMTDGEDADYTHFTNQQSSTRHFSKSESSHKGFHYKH
UniProt Q4G0I0: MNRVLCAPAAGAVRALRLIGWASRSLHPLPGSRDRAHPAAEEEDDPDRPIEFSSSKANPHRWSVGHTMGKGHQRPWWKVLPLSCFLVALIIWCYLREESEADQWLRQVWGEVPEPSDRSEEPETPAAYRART
UniProt Q13042, whole entry, looked up: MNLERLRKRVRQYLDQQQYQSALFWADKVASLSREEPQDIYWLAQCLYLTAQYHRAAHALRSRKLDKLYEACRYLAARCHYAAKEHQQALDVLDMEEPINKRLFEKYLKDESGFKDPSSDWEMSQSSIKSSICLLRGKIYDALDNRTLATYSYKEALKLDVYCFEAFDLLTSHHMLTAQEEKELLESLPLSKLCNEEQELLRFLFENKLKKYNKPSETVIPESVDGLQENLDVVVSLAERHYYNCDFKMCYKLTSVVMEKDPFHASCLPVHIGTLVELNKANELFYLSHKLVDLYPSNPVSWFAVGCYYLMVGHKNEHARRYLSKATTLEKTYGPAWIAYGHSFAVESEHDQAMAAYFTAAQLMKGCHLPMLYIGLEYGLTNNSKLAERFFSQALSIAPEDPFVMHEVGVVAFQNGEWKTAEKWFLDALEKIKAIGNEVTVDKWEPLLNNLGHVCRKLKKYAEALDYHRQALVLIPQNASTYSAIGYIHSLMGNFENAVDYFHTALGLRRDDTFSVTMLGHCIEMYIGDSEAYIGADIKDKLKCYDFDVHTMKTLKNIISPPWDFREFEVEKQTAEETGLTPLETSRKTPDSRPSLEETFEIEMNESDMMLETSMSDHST
UniProt P20248, whole entry, looked up: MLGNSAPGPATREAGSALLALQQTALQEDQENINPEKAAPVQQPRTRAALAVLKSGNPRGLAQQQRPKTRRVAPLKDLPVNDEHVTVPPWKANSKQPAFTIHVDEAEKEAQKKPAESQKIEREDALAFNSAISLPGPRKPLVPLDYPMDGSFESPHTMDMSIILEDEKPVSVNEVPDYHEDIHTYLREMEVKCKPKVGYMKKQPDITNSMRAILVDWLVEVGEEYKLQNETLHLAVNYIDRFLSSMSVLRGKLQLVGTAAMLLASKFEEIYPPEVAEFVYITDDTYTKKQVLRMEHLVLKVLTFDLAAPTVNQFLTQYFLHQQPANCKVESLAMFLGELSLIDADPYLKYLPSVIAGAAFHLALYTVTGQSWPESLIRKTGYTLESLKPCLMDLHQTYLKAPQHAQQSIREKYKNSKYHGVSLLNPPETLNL
UniProt Q96CT7: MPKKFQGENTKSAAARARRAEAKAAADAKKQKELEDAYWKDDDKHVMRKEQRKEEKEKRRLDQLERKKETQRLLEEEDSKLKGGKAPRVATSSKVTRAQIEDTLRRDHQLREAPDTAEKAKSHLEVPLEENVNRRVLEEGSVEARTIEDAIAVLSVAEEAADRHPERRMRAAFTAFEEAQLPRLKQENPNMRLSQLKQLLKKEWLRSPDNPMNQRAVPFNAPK
UniProt Q9GZT6: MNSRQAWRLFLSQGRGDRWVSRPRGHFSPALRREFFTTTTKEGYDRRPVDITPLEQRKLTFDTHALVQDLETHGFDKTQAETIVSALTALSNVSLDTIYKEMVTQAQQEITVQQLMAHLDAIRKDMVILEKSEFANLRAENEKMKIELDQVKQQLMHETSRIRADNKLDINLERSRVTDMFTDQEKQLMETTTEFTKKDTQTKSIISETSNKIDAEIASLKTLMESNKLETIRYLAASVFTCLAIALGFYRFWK
UniProt Q96ER9: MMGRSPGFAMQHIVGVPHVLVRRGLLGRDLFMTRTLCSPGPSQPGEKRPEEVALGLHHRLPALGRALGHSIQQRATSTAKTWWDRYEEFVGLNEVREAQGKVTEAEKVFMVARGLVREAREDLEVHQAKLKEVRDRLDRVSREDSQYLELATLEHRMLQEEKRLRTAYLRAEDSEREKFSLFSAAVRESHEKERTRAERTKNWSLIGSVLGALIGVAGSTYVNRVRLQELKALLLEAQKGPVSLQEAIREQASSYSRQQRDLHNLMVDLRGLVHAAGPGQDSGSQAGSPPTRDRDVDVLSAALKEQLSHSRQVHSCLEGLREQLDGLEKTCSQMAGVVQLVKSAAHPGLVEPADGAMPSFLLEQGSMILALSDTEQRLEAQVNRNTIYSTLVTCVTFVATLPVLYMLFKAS
UniProt P49427: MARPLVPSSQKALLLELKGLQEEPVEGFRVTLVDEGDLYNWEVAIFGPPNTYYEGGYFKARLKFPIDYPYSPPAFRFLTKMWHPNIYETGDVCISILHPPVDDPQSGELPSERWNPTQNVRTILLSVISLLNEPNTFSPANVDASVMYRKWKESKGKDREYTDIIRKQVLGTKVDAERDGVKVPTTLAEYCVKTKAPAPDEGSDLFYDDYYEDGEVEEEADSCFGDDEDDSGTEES
UniProt P16070: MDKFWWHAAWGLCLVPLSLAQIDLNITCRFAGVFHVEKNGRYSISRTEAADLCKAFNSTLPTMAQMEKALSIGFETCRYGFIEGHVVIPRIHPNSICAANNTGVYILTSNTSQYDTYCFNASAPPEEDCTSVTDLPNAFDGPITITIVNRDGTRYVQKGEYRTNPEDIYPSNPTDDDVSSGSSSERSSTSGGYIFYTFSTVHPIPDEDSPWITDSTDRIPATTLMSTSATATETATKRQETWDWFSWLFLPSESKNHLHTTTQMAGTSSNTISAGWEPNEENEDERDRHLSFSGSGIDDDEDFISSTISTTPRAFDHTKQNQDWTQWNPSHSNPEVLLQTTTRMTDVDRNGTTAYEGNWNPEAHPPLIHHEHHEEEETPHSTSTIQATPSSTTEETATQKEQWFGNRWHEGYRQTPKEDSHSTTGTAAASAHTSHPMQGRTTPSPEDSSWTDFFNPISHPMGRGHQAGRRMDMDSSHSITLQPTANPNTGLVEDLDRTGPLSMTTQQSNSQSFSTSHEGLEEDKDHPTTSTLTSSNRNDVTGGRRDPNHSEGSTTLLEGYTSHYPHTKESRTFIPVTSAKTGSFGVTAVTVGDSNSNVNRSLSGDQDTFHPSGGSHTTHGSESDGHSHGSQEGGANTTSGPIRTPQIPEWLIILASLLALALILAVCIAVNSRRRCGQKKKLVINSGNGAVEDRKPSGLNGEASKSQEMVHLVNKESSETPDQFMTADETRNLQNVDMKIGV
UniProt Q6P1N0: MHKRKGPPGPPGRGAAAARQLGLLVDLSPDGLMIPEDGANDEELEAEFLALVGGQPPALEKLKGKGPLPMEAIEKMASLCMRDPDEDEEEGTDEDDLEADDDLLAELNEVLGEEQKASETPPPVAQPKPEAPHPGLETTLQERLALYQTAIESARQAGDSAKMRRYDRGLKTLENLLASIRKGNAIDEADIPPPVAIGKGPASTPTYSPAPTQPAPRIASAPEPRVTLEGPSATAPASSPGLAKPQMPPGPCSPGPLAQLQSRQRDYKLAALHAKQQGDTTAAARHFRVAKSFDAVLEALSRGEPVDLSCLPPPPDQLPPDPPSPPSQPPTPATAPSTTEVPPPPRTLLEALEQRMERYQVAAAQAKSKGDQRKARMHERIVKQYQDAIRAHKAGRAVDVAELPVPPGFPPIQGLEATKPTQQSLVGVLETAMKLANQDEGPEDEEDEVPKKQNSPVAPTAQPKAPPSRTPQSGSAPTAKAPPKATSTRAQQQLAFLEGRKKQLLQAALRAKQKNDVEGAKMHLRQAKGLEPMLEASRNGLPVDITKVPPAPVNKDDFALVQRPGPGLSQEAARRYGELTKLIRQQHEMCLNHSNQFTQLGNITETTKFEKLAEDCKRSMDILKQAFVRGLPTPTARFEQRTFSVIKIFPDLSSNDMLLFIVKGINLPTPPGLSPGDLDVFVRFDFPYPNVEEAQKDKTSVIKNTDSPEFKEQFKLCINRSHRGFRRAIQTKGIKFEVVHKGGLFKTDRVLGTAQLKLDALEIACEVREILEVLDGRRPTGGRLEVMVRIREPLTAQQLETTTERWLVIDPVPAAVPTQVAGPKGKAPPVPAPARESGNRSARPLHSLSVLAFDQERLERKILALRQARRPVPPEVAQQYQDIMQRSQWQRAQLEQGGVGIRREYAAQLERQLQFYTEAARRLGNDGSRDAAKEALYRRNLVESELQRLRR
UniProt Q9ULG6: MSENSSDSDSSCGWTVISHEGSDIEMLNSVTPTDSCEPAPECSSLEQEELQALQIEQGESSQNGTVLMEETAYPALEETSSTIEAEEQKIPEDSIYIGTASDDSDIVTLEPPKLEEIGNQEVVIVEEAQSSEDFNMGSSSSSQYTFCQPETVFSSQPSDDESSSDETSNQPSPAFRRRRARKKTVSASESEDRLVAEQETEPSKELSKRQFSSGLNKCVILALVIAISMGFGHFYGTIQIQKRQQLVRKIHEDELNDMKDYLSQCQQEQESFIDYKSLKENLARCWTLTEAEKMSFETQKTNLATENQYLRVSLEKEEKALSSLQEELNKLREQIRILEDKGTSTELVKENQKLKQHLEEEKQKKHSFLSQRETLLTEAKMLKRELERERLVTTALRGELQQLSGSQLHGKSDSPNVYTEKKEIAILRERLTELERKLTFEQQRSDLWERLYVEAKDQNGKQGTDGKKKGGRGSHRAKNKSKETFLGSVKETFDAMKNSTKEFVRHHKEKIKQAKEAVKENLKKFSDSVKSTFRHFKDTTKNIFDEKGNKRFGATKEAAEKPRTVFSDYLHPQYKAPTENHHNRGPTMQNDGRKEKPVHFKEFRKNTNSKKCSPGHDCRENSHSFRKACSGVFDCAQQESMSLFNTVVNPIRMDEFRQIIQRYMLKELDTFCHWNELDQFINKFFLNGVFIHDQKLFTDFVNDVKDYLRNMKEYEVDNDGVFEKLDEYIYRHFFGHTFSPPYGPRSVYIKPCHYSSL
UniProt Q9UJX2, whole entry, looked up: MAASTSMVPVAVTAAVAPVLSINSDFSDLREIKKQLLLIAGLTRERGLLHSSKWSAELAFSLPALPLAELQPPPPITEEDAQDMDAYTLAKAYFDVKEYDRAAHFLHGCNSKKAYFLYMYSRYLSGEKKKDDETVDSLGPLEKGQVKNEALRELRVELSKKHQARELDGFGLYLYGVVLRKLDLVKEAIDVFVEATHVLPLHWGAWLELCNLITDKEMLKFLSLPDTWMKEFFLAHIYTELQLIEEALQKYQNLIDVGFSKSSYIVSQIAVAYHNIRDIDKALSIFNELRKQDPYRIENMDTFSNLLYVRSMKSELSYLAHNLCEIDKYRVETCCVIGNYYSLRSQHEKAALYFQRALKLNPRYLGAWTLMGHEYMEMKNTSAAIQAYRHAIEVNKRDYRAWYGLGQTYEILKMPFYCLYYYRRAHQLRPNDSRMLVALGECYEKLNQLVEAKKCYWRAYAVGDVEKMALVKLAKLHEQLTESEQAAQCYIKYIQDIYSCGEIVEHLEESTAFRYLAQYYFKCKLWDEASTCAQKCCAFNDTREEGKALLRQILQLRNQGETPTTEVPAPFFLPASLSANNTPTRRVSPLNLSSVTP
UniProt Q9BUN5: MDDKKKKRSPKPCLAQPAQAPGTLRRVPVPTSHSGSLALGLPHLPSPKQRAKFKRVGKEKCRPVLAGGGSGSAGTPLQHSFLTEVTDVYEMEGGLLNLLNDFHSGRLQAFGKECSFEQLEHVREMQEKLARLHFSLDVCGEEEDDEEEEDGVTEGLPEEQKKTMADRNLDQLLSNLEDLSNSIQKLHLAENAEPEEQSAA

Key:
Experiment in all cases: log2 fold change, soluble protein after heating vs DMSO (PISA); higher = thermal stabilisation; K562 cells, 10 uM, 30 min; active = over 0.2 and 3.5 SD of the protein, either way, in both replicates (recomputed)
[1] = compound: NC(=O)Nc1cc(-c2cccc(F)c2)sc1C(=O)N[C@H]1CCCNC1
How it was run: (§1)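 K562 cells at 2×10^6 cells/mL were given 10 μM compound for 30 min. Aliquots then went through 3 min of heating across 48°C-58°C, were pooled, and were extracted in PBS with 0.5% NP-40 at 4°C, and the supernatant after 21,000xg for 90 min was quantified by TMTpro 16plex LC-MS/MS with channel sums equalised. Thermal stability relative to control samples, from duplicates, is given as log2 fold change.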

[2] = compound: NC(=O)c1cnc(N[C@@H]2CCCC[C@@H]2N)nc1Nc1cccc(-n2nccn2)c1
How it was run: as §1

[3] = compound: NC1(c2ccc(-c3nc4ccn5c(=O)[nH]nc5c4cc3-c3ccccc3)cc2)CCC1
How it was run: as §1

[4] = compound: NCC(=O)Nc1ccc(-n2nc(C(F)(F)F)cc2-c2ccc3c(ccc4ccccc43)c2)cc1
How it was run: as §1

[5] = compound: Nc1ccccc1NC(=O)c1ccc(CNC(=O)OCc2cccnc2)cc1 [entinostat]
How it was run: as §1

[6] = compound: O=C(CCCCCCC(=O)Nc1ccccc1)NO [vorinostat]
How it was run: as §1

[7] = compound: O=C(CCCCCCNC(=O)c1cnc(N(c2ccccc2)c2ccccc2Cl)nc1)NO [citarinostat]
How it was run: as §1

[8] = compound: O=C(O)c1ccc2c(c1)nc(Nc1cccc(Cl)c1)c1ccncc12 [silmitasertib]
How it was run: as §1

[9] = compound: O=C1NC(=O)C(c2cnc3ccccn23)=C1c1cn2c3c(cc(F)cc13)CN(C(=O)N1CCCCC1)CC2
How it was run: as §1

[10] = compound: c1cc(OCCN2CCCCC2)cc(-c2n[nH]c3ccc(-c4nnc[nH]4)cc23)c1
How it was run: as §1

[11] = compound: c1cn2cc(-c3ccc4cn[nH]c4c3)nc(Nc3ccc(N4CCOCC4)cc3)c2n1 [entospletinib]
How it was run: as §1

Measured: log2 fold change

CCDC86 (UniProt Q9H6F5)
inactive: [1] 0.316 | [2] 0.201 | [3] 0.225 | [4] 0.187 | [5] -0.117 | [6] -0.035 | [7] -0.18 | [8] 0.124 | [9] 0.14 | [10] -0.123 | [11] -0.05

CDC37 (UniProt Q16543)
inactive: [1] -0.006 | [2] -0.015 | [3] -0.02 | [4] -0.006 | [5] 0.001 | [6] 0.029 | [7] 0.004 | [8] -0.016 | [9] -0.023 | [10] 0.017 | [11] -0.016

CCDC50 (UniProt Q8IVM0)
inactive: [1] -0.05 | [2] -0.004 | [3] -0.023 | [4] -0.022 | [5] -0.032 | [6] -0.004 | [7] 0.002 | [8] -0.023 | [9] 0.189 | [10] -0.033 | [11] 0.009

CCDC127 (UniProt Q96BQ5)
inactive: [1] -0.044 | [2] -0.016 | [3] -0.027 | [4] -0.018 | [5] 0.065 | [6] -0.028 | [7] -0.021 | [8] 0.055 | [9] 0.055 | [10] -0.068 | [11] 0.022

CAV2 (UniProt P51636)
inactive: [1] -0.251 | [2] -0.041 | [3] 0.027 | [5] -0.088 | [6] 0.147 | [8] 0.106

CBARP (UniProt Q8N350)
inactive: [1] -0.109 | [2] -0.049 | [4] 0.021 | [5] 0.144 | [6] -0.046 | [7] 0.044 | [9] -0.028 | [10] 0.047 | [11] 0.055

CCNT2 (UniProt O60583)
inactive: [1] -0.045 | [2] 0.042 | [3] 0.054 | [5] 0.076 | [6] 0.223 | [7] 0.06 | [8] -0.06 | [9] -0.032 | [10] -0.089

CCSMST1 (UniProt Q4G0I0)
inactive: [1] -0.013 | [2] 0.152 | [3] -0.002 | [4] 0.003 | [5] 0.068 | [7] 0.016 | [8] -0.041 | [9] -0.028 | [10] -0.051 | [11] -0.039

CDC16 (UniProt Q13042)
inactive: [1] 0.028 | [2] -0.045 | [3] -0.056 | [4] 0.012 | [5] 0.013 | [6] -0.008 | [7] 0.039 | [8] 0.045 | [9] 0.022 | [10] -0.061 | [11] -0.011

CDC20 (UniProt Q12834)
inactive: [1] 0.035 | [2] -0.044 | [3] -0.035 | [4] -0.089 | [5] -0.037 | [6] -0.014 | [8] -0.107 | [9] -0.039

CCNA2 (UniProt P20248)
inactive: [1] -0.069 | [2] -0.001 | [3] 0.011 | [4] 0.057 | [5] 0.052 | [6] 0.031 | [7] 0.053 | [8] -0.037 | [9] 0.015 | [10] -0.073 | [11] 0.002

CCDC124 (UniProt Q96CT7)
inactive: [1] 0.002 | [2] -0.02 | [3] 0.094 | [4] 0 | [5] -0.026 | [6] -0.002 | [7] -0.039 | [8] 0.016 | [9] 0.072 | [10] -0.053 | [11] -0.02

CCDC90B (UniProt Q9GZT6)
inactive: [1] 0.006 | [2] 0.035 | [3] -0.005 | [4] 0.027 | [5] 0.04 | [6] -0.027 | [7] 0.032 | [8] -0.002 | [9] -0.024 | [10] -0.045 | [11] 0.037

CASC4 (UniProt Q6P4E1)
inactive: [1] -0.002 | [2] -0.005 | [3] -0.012 | [4] 0.01 | [5] -0.026 | [6] -0.013 | [7] 0.037 | [8] 0.025 | [9] -0.024 | [10] -0.017 | [11] -0.027

CCNC (UniProt P24863)
inactive: [1] -0.032 | [2] -0.105 | [3] -0.017 | [4] -0.033 | [5] 0.04 | [6] -0.039 | [8] 0.183 | [9] 0.039

CCDC97 (UniProt Q96F63)
inactive: [1] 0.211 | [2] -0.109 | [3] -0.251 | [4] -0.099 | [5] 0.076 | [7] 0.072 | [8] 0.097 | [9] -0.042 | [10] -0.149 | [11] -0.134

2 records drawn at random from those above, as already listed:
CCDC90B (UniProt Q9GZT6)
inactive: [1] 0.006 | [2] 0.035 | [3] -0.005 | [4] 0.027 | [5] 0.04 | [6] -0.027 | [7] 0.032 | [8] -0.002 | [9] -0.024 | [10] -0.045 | [11] 0.037

CCNC (UniProt P24863)
inactive: [1] -0.032 | [2] -0.105 | [3] -0.017 | [4] -0.033 | [5] 0.04 | [6] -0.039 | [8] 0.183 | [9] 0.039

(continued)

CCDC85B (UniProt Q15834)
inactive: [1] 0.152 | [2] -0.266 | [3] 0.144 | [4] 0.026 | [5] -0.016 | [6] -0.038 | [7] -0.042 | [8] -0.112 | [10] -0.205 | [11] 0.038

CDC42 isoform 1 (UniProt P60953)
inactive: [1] -0.031 | [2] -0.004 | [3] 0.059 | [4] -0.086 | [5] -0.032 | [6] -0.065 | [7] 0.006 | [8] 0.026 | [9] -0.032 | [10] -0.134 | [11] -0.023

CCDC12 (UniProt Q8WUD4)
inactive: [1] 0.001 | [2] -0.018 | [3] 0.027 | [4] -0.118 | [5] -0.017 | [6] -0.052 | [7] -0.003 | [8] -0.032 | [9] -0.063 | [10] 0.013 | [11] 0.039

CCDC51 (UniProt Q96ER9)
inactive: [1] 0.12 | [2] -0.034 | [3] -0.086 | [4] 0.007 | [5] 0.074 | [6] 0.034 | [7] 0.036 | [8] -0.004 | [9] -0.082 | [10] 0.007 | [11] 0.005

CCDC134 (UniProt Q9H6E4)
inactive: [1] -0.016 | [2] 0.025 | [3] -0.076 | [4] 0.004 | [5] 0.017 | [6] -0.009 | [7] 0.05 | [8] 0.035 | [9] 0.014 | [10] -0.046 | [11] -0.016

CDC34 (UniProt P49427)
inactive: [1] -0.035 | [2] -0.286 | [3] -0.337 | [4] -0.211 | [5] 0.165 | [6] 0.211 | [7] 0.051 | [8] 0.035 | [9] -0.083 | [10] -0.076 | [11] 0.054

CD44 (UniProt P16070)
inactive: [1] -0.076 | [2] 0.013 | [4] 0.01 | [5] 0.039

CC2D1A (UniProt Q6P1N0)
inactive: [1] -0.01 | [2] 0.031 | [3] 0.018 | [4] -0.012 | [5] 0.068 | [6] 0.03 | [7] 0 | [8] 0.119 | [9] -0.043 | [10] -0.059 | [11] 0.013

CCT7 (UniProt Q99832)
inactive: [1] 0.023 | [2] 0.001 | [3] 0.005 | [4] 0.026 | [5] 0.004 | [6] 0.019 | [7] 0 | [8] -0.04 | [9] 0.044 | [10] -0.03 | [11] -0.063

CCPG1 isoform 5 (UniProt Q9ULG6)
inactive: [1] 0.017 | [2] -0.016 | [3] -0.055 | [4] 0.09 | [5] 0.058 | [6] -0.021 | [7] 0.044 | [8] 0.015 | [9] 0 | [10] -0.109 | [11] -0.046

CCT6B isoform 3 (UniProt Q92526)
inactive: [1] -0.1 | [2] -0.169 | [4] 0.014 | [5] -0.025

CDC23 (UniProt Q9UJX2)
inactive: [1] -0.048 | [2] 0.015 | [3] -0.044 | [4] -0.02 | [5] -0.025 | [6] 0.005 | [7] 0.032 | [8] 0.035 | [9] 0.001 | [10] -0.059 | [11] 0.059

CCDC28B (UniProt Q9BUN5)
inactive: [1] -0.133 | [2] 0.014 | [3] -0.019 | [4] -0.016 | [5] -0.17 | [6] 0.067 | [8] 0.158

CCNYL1 (UniProt Q8N7R7)
inactive: [1] -0.111 | [2] 0.011 | [3] -0.1 | [5] 0.021 | [6] -0.061 | [7] -0.038 | [8] 0.049 | [9] -0.072 | [10] -0.18 | [11] -0.087
